## Screening data, single-dose tests

Amino acid sequences for entries named in this document (tags omitted).
UniProt P9WNZ1, whole entry: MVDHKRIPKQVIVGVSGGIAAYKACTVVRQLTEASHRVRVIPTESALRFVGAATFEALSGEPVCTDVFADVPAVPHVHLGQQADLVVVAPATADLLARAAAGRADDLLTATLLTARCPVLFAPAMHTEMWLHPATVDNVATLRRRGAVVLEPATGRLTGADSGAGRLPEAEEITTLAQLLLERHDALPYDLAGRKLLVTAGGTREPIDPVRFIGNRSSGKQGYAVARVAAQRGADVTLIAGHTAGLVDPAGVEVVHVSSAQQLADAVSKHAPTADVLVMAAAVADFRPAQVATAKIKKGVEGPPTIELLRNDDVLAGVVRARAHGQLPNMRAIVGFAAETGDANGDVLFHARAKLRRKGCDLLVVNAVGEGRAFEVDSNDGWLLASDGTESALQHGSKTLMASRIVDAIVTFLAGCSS

Measurements from “University of Dundee, Small-Polar-MMV Screening Library” (2021), ChEMBL document CHEMBL3988442.

Leishmania in macrophages: 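Cell assay of Leishmania donovani living inside macrophages; the read-out is not stated. Tested at 30 µM. Higher reads as stronger inhibition (inferred: compounds with an IC50 in retests scored well above the rest). Of about 69,000 compounds tested this way, about 1,000 (1.5%) reached 50% or more in at least one test.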
CoaBC: 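Enzyme assay of CoaBC with a phosphate dye (Biomol Green) read at 650 nm. Target: Coenzyme A biosynthesis protein CoaBC, Mycobacterium tuberculosis (UniProt P9WNZ1). Tested at 30 µM. Direction is inferred from only a few compounds that gave an IC50; most scored high, so higher reads as stronger inhibition. Most strong results did not repeat in a second test. About 67,000 compounds were tested under these conditions; 0.06% (about 40) showed 50% or more at least once.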

Results are given as percent effect. The controls that fix the scale are not given in the record; negative values are as filed. This is an unselected part of the compounds tested. Two or more numbers in one place are separate tests of the same structure; such repeats can differ widely. A dash means the value is not listed here; it may have been measured.

With CC(C)c1nc(Cn2cncn2)n(-c2ccccn2)n1 the screen gave Leishmania in macrophages: 20.56%; CoaBC: 4.348%.
With CC(=O)N1CCc2[nH]c(=O)ccc2C1 the screen gave Leishmania in macrophages: -13.92%; CoaBC: -20.54%.
With O=C(COC1CCCC1)N1C[C@@H]2COC[C@]2(COc2cccnc2)C1 the screen gave CoaBC: -2.963%.
With COc1ccccc1OC1CCN(c2nccc(N)n2)CC1 the screen gave Leishmania in macrophages: 22.24%; CoaBC: 16.55%.
With Cc1ccc2c(n1)N(CC1CC1)CCN(Cc1cnn(C)c1)C2 the screen gave Leishmania in macrophages: 26.83%; CoaBC: 0.8485%.
With CCc1nccn1C1CCCN(C(=O)c2csc(C3CC3)n2)C1 (centres unmarked) the screen gave Leishmania in macrophages: 18.67%; CoaBC: 0.2389%.
With COCc1ccc(C(=O)N(CCC#N)Cc2ccccn2)cc1 the screen gave Leishmania in macrophages: 12.77%; CoaBC: 14.05%.
With CC(=O)NC(C(=O)N1CCn2cncc2C1)C(C)C (centres unmarked) the screen gave Leishmania in macrophages: -17.39%; CoaBC: -5.785%.
With Cc1cncc(C2CCCN(C(=O)c3cnco3)C2)n1 (centres unmarked) the screen gave Leishmania in macrophages: 19.85% & 8.503%; CoaBC: 0.4854%.
With CCN1C(=O)CC[C@@H]2[C@H]1CCN2S(=O)(=O)c1cccs1 the screen gave CoaBC: 3.308%.
With COCc1cc(N(C)Cc2cnccn2)nc(C(C)(C)C)n1 the screen gave Leishmania in macrophages: 1.293%; CoaBC: 6.962%.
With [H][C@]12CCN(C(=O)N3CCCC3)[C@@]1([H])CCC(=O)N2Cc1ccncc1 the screen gave Leishmania in macrophages: -15.55%.
With CCc1ccc(CN2C[C@@H]3OCCN(c4ccnc(N(C)C)n4)[C@@H]3C2)o1 the screen gave CoaBC: -3.226%.
With Cc1csc(CNC(=O)Nc2ccc3c(c2)OCO3)n1 the screen gave Leishmania in macrophages: 37.01%; CoaBC: -6.024%.
With COCCCNc1nccc(-c2c[nH][nH]c2=O)n1 the screen gave Leishmania in macrophages: -27.05%; CoaBC: 0.9126%.
With O=C(N1CCCC1)C12CC(CN1Cc1nccs1)C2 the screen gave Leishmania in macrophages: 23.73%.
With COc1ccc(S(=O)(=O)Cc2cc(C)on2)cc1 the screen gave Leishmania in macrophages: 27.28%; CoaBC: 7.559%.
With CCN1CC(COc2ccc(OC)cc2)Oc2ccncc2S1(=O)=O (centres unmarked) the screen gave Leishmania in macrophages: 7.965%; CoaBC: 2.331%.
With CCc1ccc(Cn2nccc2NC(=O)C2CCS(=O)(=O)C2)cc1 (centres unmarked) the screen gave Leishmania in macrophages: 28.09%; CoaBC: 3.181%.
With CNC(=O)N1CC[C@@H]2CN(CCc3cccc(OC)c3)S(=O)(=O)[C@@H]2CC1 the screen gave CoaBC: 7.822%.
With Cc1cccc(COc2ccc(C(C)NS(N)(=O)=O)cc2)c1 (centres unmarked) the screen gave Leishmania in macrophages: 2.826%; CoaBC: 6.472%.
With O=C(O)C(F)(F)F.[H][C@@]12CCN(c3ncccn3)[C@@]1([H])CCN2S(=O)(=O)c1cccc(F)c1 the screen gave Leishmania in macrophages: 11.93%.
With Cc1cc(S(=O)(=O)Nc2onc(C)c2C)sc1C the screen gave Leishmania in macrophages: 18.71%; CoaBC: -0.861%.
With CC(Nc1cccc(CN2CCOC2=O)c1)C(=O)N1CCNC1=O (centres unmarked) the screen gave Leishmania in macrophages: -11.74%; CoaBC: 3.368%.
With CCOc1ccc(NC2CCN(C)C2=O)cn1 (centres unmarked) the screen gave Leishmania in macrophages: 9.05%; CoaBC: 0.123%.
With NS(=O)(=O)c1ccc(F)c(C(=O)NCCSc2ccccn2)c1 the screen gave Leishmania in macrophages: 26.48%; CoaBC: 4.783%.
With CCN(CC1CCOC1)C(=O)Nc1ccc(-n2cncn2)nc1 (centres unmarked) the screen gave Leishmania in macrophages: 14.57%; CoaBC: 4.404%.
With O=C1CCC2(CCCN(Cc3ccccc3F)C2)N1CC1CC1 (centres unmarked) the screen gave CoaBC: 3.308%.
With CCNC(=O)C1CCCN1S(=O)(=O)c1sc(=O)[nH]c1C (centres unmarked) the screen gave Leishmania in macrophages: 15.94%; CoaBC: -2.593%.
With C=C(C)CN(CC)C(=O)CN(C)C1CCc2ccccc21 (centres unmarked) the screen gave Leishmania in macrophages: 35.8%; CoaBC: 9.252%.
With CC(=O)NCCNC(=O)c1cnc(C(C)(C)C)s1 the screen gave Leishmania in macrophages: 11.44%; CoaBC: 4.215%.

Some entries from above, unchanged:

structure	Leishmania in macrophages	CoaBC
CC(Nc1cccc(CN2CCOC2=O)c1)C(=O)N1CCNC1=O (centres unmarked)	-11.74%	3.368%
[H][C@]12CCN(C(=O)N3CCCC3)[C@@]1([H])CCC(=O)N2Cc1ccncc1	-15.55%	-
O=C(COC1CCCC1)N1C[C@@H]2COC[C@]2(COc2cccnc2)C1	-	-2.963%